Experimental data from patent US11028102B2, “Methods of using 1-O-acetylbritannilatone spiro aryl isoxazoline compounds” (priority 2017, dated 2021).
Some results were stated once for a whole list of compounds, not compound by compound.

System: Leukotriene C4 (LTC4) production in mouse bone marrow-derived mast cells (BMMCs)
Experiment: Inhibition of LTC4 production/release by IgE/DNP-HSA-stimulated BMMCs (ELISA)
Assay type: cell-based
Details: at the test concentrations
Experimental: (1) Experimental Animal: a 6-week-old female Balb/C mouse without specific pathogens.
(2) Extraction Process: the mouse was sacrificed by cervical dislocation. After confirming the death of the mouse, it was immersed in alcohol for 3-5 minutes. The back skin of the mouse was cut with tweezers and scissors on a clean bench. The spleen was removed and placed in a filter. The filter was placed in a petri dish containing serum-free medium. The spleen was grounded into a cell suspension having a cell concentration of 2×10^6 cells/mL. […] of lectins was added, and cell suspension was then cultured in RPMI1640 medium for 5 days. The supernatant was collected. The femur bone of the mouse was removed, and joints of the bone was cut. The bone marrow was washed into a centrifuging tube by using serum-free medium. The bone marrow containing medium was then centrifuged, and the supernatant was discarded and the pellet was red bone marrow. […]
Principle: This experiment is based on the competitive binding of LTC4 to the LTC4-acetylcholinesterase conjugate (LTC4 tracer) to determine the amount of LTC4 antiserum. […] The color depth was measured by the spectrophotometric method, and is proportional to the amount of LTC4 tracer, which is inversely proportional to the amount of LTC4. […]
(c) Measurement of Absorbance: The absorbance was measured at 405 nm.

| Compound | inhibition rate of production of mast cells LTC4 |
| --- | --- |
| CC(=O)OCCCC(C)C1=C(C)CC2OC(=O)C3(CC(c4ccc(C#N)cc4)=NO3)C2C1O (centres unmarked) [Compound 2e] | exceed 70% |
| CC(=O)OCCCC(C)C1=C(C)CC2OC(=O)C3(CC(c4ccc(F)cc4)=NO3)C2C1O (centres unmarked) [Compound 2b] | exceed 70% |
